From PMC10018359, “Allosteric effects of E. coli SSB and RecR proteins on RecO protein binding to DNA” (Nucleic Acids Research, 2023)
The exact form of at least one protein or probe is not confirmed. Weaker means in comparison with the reference protein, sequence or condition of that experiment. Tags and fusion partners may be left off the protein sequences shown.

Target: T1, RecO (Escherichia coli) (UniProt P0A7H3)
T1 sequence (looked up, limits assumed): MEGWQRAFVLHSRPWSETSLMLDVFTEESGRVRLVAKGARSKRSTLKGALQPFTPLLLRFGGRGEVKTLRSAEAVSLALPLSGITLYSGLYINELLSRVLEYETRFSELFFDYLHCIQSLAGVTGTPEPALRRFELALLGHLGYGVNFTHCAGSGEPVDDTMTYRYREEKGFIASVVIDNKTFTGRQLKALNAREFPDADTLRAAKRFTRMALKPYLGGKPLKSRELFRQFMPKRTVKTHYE
Assay: AUC sedimentation velocity
Conditions: no SSB-Ct, Buffer BTP: 20 mM Bis-Tris propane pH 8.0, 50 mM NaCl, 25% (v/v) glycerol, 1 mM TCEP, 25 C, recombinant protein, protein details: His-tag cleaved with TEV (pMCSG7), label: 3'-Cy3, single-stranded DNA

TTTTTTTTTTTTTTT [Cy3-(dT)15]
binding result (0.5 to 0.6 S): binds more weakly

TTTTTTTTTTTTTTTTTTTTTTTTTTTTTTTTTTTTTTTTTTTTTTTTTTTTTTTTTTTTTTTTTTTT [Cy3-(dT)68]
binding result (0.9 to 1.0 S): binds more weakly

TTTTTTTTTTTTTTTTTTTTTTTTTTTTTTTTTTT [Cy3-(dT)35]
binding result (0.7 to 0.7 S): binds more weakly

TTTTTTTTTTTTTTTTTTTTTTTTTTTTTTTTTTTTTTTTTTTTTTTTTTTTTTTTTTTTTTTTTTTTTTTTTTTTTTTTTTTTTTTTTTTTTTTTTTTTTTTTTTTTTTTTTTTTTTTTTTTTTTTTTTTTTTTTTTTT [Cy3-(dT)140]
binding result (1.2 to 1.2 S): binds more weakly
